Measurements from paper PMC3531308.
Results are given in words; binding and its absence hold for the method and conditions named. Binding seen in cells or lysates may run through a third protein. For some assays here: A result given as binding can be weak or reduced; the word gives no strength. For some assays here: Tags and fused reporters may be left off the sequences shown.

T1: endogenous JunB (human (endogenous in 293T)) (UniProt P17275)
T1 sequence: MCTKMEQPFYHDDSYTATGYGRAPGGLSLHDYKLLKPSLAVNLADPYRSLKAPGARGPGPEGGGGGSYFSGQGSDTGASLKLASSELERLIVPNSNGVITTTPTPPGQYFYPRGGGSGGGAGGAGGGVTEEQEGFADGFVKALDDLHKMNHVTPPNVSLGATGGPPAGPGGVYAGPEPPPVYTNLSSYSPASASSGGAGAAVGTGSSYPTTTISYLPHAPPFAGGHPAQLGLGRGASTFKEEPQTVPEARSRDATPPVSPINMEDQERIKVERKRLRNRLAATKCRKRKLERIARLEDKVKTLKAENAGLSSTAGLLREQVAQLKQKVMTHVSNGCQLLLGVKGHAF

T2: FLAG-JunB (UniProt P17275)
T2 sequence: T1 sequence

T3: FLAG-JunD (UniProt P17535)
T3 sequence: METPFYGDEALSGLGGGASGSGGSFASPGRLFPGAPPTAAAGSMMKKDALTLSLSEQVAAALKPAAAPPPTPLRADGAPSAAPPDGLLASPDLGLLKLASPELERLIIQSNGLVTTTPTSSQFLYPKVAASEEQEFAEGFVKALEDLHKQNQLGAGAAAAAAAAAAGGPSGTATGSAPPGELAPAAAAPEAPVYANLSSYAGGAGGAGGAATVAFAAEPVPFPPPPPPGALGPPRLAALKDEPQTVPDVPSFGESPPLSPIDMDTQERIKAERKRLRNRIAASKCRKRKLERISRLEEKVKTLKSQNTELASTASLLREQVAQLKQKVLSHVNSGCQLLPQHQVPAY

B1: FLAG-JunD (protein, UniProt P17535 1-347)
chain: T3 sequence
B2: FLAG-JunB (protein, UniProt P17275 1-347)
chain: T1 sequence

What was measured:
[1] = molecular target: T1, endogenous JunB (human (endogenous in 293T)); assay: co-IP; endogenous c-Jun or JunB immunoprecipitated (anti-c-Jun, anti-JunB) from nuclear extracts of 293T cells transfected with FLAG-APH-2; Western blot with anti-FLAG
[2] = molecular target: T2, FLAG-JunB; assay: co-IP; competition-binding: nuclear extracts of 293T cells expressing APH-2, c-Jun-HA or FLAG-JunB and increasing amounts of Tax2B-His; IP with FLAG antibodies; Western blot
[3] = molecular target: T2, FLAG-JunB; assay: co-IP; competition-binding (Additional file 5): nuclear extracts of 293T cells overexpressing tagged APH-2, c-Jun or JunB and Tax2A; IP with FLAG antibodies; Western blot
[4] = molecular target: T2, FLAG-JunB; assay: co-IP; 293T cells transiently co-transfected with two tagged proteins; nuclear (in places called cellular) extracts 48 h after transfection, 400 ug; IP with 5 ug anti-FLAG, anti-Myc or anti-6xHis overnight at 4°C, Protein A/G beads; washes with 120 mM and 400 mM NaCl, 0.5% NP-40; Western blot
[5] = molecular target: T3, FLAG-JunD; assay: as above
[6] = molecular target: APH-2-His (HTLV-2); assay: as above

| Molecule | binding [2] | binding [6] | also measured |
| --- | --- | --- | --- |
| FLAG-APH-2 (antisense protein of HTLV-2, full-length) |  |  | binding [1]: binds |
| APH-2-His (HTLV-2) | binds |  | binding [3]: binds; binding [4]: binds; binding [5]: no binding |
| Tax2B-His (expressed in 293T cells) (HTLV-2) | binds |  |  |
| B1 |  | no binding |  |
| B2 |  | binds |  |
